The values that follow come from US6645728.

These are yes or no findings as the source states them, for the method shown. Binding seen in cells or lysates may run through a third protein. Some binding calls cover weakened binding; strength is not graded here. Sequences can lack the tags named with a protein.

The target of experiment [1] is T1, IKKα-T7 (murine) (UniProt Q60680).
T1 sequence (looked up): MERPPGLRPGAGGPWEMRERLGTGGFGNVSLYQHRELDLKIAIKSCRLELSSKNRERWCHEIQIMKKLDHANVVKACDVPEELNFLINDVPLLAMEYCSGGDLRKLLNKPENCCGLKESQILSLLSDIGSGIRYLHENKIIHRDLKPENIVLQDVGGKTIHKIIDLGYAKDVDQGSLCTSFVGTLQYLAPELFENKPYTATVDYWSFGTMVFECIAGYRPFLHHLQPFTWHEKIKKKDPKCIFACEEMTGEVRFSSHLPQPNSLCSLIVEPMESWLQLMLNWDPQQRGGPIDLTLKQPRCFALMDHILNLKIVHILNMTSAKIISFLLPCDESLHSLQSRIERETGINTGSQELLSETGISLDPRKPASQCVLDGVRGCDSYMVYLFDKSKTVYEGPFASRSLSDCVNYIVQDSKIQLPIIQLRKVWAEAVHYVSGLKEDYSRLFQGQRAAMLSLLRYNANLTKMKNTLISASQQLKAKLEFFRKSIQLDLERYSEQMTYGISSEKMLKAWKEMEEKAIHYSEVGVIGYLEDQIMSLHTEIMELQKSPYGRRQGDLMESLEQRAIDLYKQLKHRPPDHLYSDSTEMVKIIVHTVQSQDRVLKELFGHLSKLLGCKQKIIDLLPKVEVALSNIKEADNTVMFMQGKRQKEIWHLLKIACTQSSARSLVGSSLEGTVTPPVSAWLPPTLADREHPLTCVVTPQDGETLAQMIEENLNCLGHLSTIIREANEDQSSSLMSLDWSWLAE
As to the kind of experiment: co-immunoprecipitation from 293 lysates, anti-T7 IP, anti-Myc blot.

For experiment [2], the target named is NIK-T7 (Homo sapiens (Human)) (UniProt Q99558). The description is as above.
Experiment [3] has as its target T1, IKKα-T7 (murine). The experiment in a line: co-immunoprecipitation (FIGS. 8 and 9).
The target in experiment [4] is T1, IKKα-T7 (murine). The experiment in a line: co-immunoprecipitation from 293 lysates, anti-T7 IP, anti-Myc blot (FIG. 8B).
Experiment [5] has as its target NIK-T7 (Homo sapiens (Human)), Q99558. The experiment in a line: co-immunoprecipitation from HeLa lysates, anti-T7 IP, anti-Myc blot (FIG. 5A). Particulars: remark: other sources report otherwise.
Experiment [6] shares this target. As to the kind of experiment: co-immunoprecipitation from HeLa lysates, anti-T7 IP, anti-Myc blot. The conditions noted are these: remark: other sources report otherwise.

B1: Myc-N735-947 (protein, not shown: small tags and cut ends)
chain: EESGMWEPLPLSSLEPAPARNPSSPERKATVPEQELQQLEIELFLNSLSQPFSLEEQEQILSCLSIDSLSLSDDSEKNPSKASQSSRDTLSSGVHSWSSQAEARSSSWNMVLARGRPTDTPSYFNGVKVQIQSLNGEHLHIREFHRVKVGDIATGISSQIPAAAFSLVTKDGQPVRYDMEVPDSGIDLQCTLAPDGSFAWSWRVKHGQLENRP
On to B1, for which the binding entry (with IKKα-T7 (murine) [1]; in experiment [2]; in the experiment with IKKα-T7 (murine) [3]; in the experiment with IKKα-T7 (murine) [4]) was “binds” in each case.

B2: Myc-NIK, Q99558 1-947 (enzyme, not shown: small tags and cut ends)
chain: MAVMEMACPGAPGSAVGQQKELPKPKEKTPPLGKKQSSVYKLEAVEKSPVFCGKWEILNDVITKGTAKEGSEAGPAAISIIAQAECENSQEFSPTFSERIFIAGSKQYSQSESLDQIPNNVAHATEGKMARVCWKGKRRSKARKKRKKKSSKSLAHAGVALAKPLPRTPEQESCTIPVQEDESPLGAPYVRNTPQFTKPLKEPGLGQLCFKQLGEGLRPALPRSELHKLISPLQCLNHVWKLHHPQDGGPLPLPTHPFPYSRLPHPFPFHPLQPWKPHPLESFLGKLACVDSQKPLPDPHLSKLACVDSPKPLPGPHLEPSCLSRGAHEKFSVEEYLVHALQGSVSSSQAHSLTSLAKTWAARGSRSREPSPKTEDNEGVLLTEKLKPVDYEYREEVHWATHQLRLGRGSFGEVHRMEDKQTGFQCAVKKVRLEVFRAEELMACAGLTSPRIVPLYGAVREGPWVNIFMELLEGGSLGQLVKEQGCLPEDRALYYLGQALEGLEYLHSRRILHGDVKADNVLLSSDGSHAALCDFGHAVCLQPDGLGKSLLTGDYIPGTETHMAPEVVLGRSCDAKVDVWSSCCMMLHMLNGCHPWTQFFRGPLCLKIASEPPPVREIPPSCAPLTAQAIQEGLRKEPIHRVSAAELGGKVNRALQQVGGLKSPWRGEYKEPRHPPPNQANYHQTLHAQPRELSPRAPGPRPAEETTGRAPKLQPPLPPEPPEPNKSPPLTLSKEESGMWEPLPLSSLEPAPARNPSSPERKATVPEQELQQLEIELFLNSLSQPFSLEEQEQILSCLSIDSLSLSDDSEKNPSKASQSSRDTLSSGVHSWSSQAEARSSSWNMVLARGRPTDTPSYFNGVKVQIQSLNGEHLHIREFHRVKVGDIATGISSQIPAAAFSLVTKDGQPVRYDMEVPDSGIDLQCTLAPDGSFAWSWRVKHGQLENRP
As to B2, the binding entry in experiment [5] and in experiment [6] was “binds” each time.

B3: Myc-NIK-KK429/430AA (enzyme, not shown: small tags and cut ends)
chain: MAVMEMACPGAPGSAVGQQKELPKPKEKTPPLGKKQSSVYKLEAVEKSPVFCGKWEILNDVITKGTAKEGSEAGPAAISIIAQAECENSQEFSPTFSERIFIAGSKQYSQSESLDQIPNNVAHATEGKMARVCWKGKRRSKARKKRKKKSSKSLAHAGVALAKPLPRTPEQESCTIPVQEDESPLGAPYVRNTPQFTKPLKEPGLGQLCFKQLGEGLRPALPRSELHKLISPLQCLNHVWKLHHPQDGGPLPLPTHPFPYSRLPHPFPFHPLQPWKPHPLESFLGKLACVDSQKPLPDPHLSKLACVDSPKPLPGPHLEPSCLSRGAHEKFSVEEYLVHALQGSVSSSQAHSLTSLAKTWAARGSRSREPSPKTEDNEGVLLTEKLKPVDYEYREEVHWATHQLRLGRGSFGEVHRMEDKQTGFQCAVAAVRLEVFRAEELMACAGLTSPRIVPLYGAVREGPWVNIFMELLEGGSLGQLVKEQGCLPEDRALYYLGQALEGLEYLHSRRILHGDVKADNVLLSSDGSHAALCDFGHAVCLQPDGLGKSLLTGDYIPGTETHMAPEVVLGRSCDAKVDVWSSCCMMLHMLNGCHPWTQFFRGPLCLKIASEPPPVREIPPSCAPLTAQAIQEGLRKEPIHRVSAAELGGKVNRALQQVGGLKSPWRGEYKEPRHPPPNQANYHQTLHAQPRELSPRAPGPRPAEETTGRAPKLQPPLPPEPPEPNKSPPLTLSKEESGMWEPLPLSSLEPAPARNPSSPERKATVPEQELQQLEIELFLNSLSQPFSLEEQEQILSCLSIDSLSLSDDSEKNPSKASQSSRDTLSSGVHSWSSQAEARSSSWNMVLARGRPTDTPSYFNGVKVQIQSLNGEHLHIREFHRVKVGDIATGISSQIPAAAFSLVTKDGQPVRYDMEVPDSGIDLQCTLAPDGSFAWSWRVKHGQLENRP
For the molecule B3, the binding entry with IKKα-T7 (murine) [1] was “binds”.

B4: Myc-N200-947 (protein, not shown: small tags and cut ends)
chain: LKEPGLGQLCFKQLGEGLRPALPRSELHKLISPLQCLNHVWKLHHPQDGGPLPLPTHPFPYSRLPHPFPFHPLQPWKPHPLESFLGKLACVDSQKPLPDPHLSKLACVDSPKPLPGPHLEPSCLSRGAHEKFSVEEYLVHALQGSVSSSQAHSLTSLAKTWAARGSRSREPSPKTEDNEGVLLTEKLKPVDYEYREEVHWATHQLRLGRGSFGEVHRMEDKQTGFQCAVKKVRLEVFRAEELMACAGLTSPRIVPLYGAVREGPWVNIFMELLEGGSLGQLVKEQGCLPEDRALYYLGQALEGLEYLHSRRILHGDVKADNVLLSSDGSHAALCDFGHAVCLQPDGLGKSLLTGDYIPGTETHMAPEVVLGRSCDAKVDVWSSCCMMLHMLNGCHPWTQFFRGPLCLKIASEPPPVREIPPSCAPLTAQAIQEGLRKEPIHRVSAAELGGKVNRALQQVGGLKSPWRGEYKEPRHPPPNQANYHQTLHAQPRELSPRAPGPRPAEETTGRAPKLQPPLPPEPPEPNKSPPLTLSKEESGMWEPLPLSSLEPAPARNPSSPERKATVPEQELQQLEIELFLNSLSQPFSLEEQEQILSCLSIDSLSLSDDSEKNPSKASQSSRDTLSSGVHSWSSQAEARSSSWNMVLARGRPTDTPSYFNGVKVQIQSLNGEHLHIREFHRVKVGDIATGISSQIPAAAFSLVTKDGQPVRYDMEVPDSGIDLQCTLAPDGSFAWSWRVKHGQLENRP
On to B4, for which the binding entry in experiment [2] was “binds”.
